22 targets from the supplement of paper PMC10849652 can be followed below.

Amino acid sequences for entries named in this document (tags omitted). A change or cut given only in a name is not applied to a line headed by its entry.
UniProt Q6GMV3: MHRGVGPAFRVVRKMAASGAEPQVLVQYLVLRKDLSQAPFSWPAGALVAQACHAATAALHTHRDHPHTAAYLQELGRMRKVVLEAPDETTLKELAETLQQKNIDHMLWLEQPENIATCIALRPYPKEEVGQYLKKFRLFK
UniProt P06454: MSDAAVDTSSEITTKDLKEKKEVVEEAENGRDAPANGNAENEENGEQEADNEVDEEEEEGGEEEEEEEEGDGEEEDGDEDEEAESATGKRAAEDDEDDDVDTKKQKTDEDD
UniProt Q15257: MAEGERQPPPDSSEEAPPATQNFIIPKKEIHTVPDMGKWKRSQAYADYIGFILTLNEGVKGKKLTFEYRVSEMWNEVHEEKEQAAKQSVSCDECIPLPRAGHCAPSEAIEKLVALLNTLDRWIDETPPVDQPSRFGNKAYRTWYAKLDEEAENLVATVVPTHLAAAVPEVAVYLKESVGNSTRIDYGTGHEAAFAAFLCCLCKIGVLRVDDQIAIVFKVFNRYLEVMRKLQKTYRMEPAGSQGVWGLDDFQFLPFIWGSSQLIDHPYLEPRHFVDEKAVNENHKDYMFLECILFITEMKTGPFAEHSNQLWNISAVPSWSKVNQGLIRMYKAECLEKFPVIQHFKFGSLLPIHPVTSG
UniProt Q9UHX1: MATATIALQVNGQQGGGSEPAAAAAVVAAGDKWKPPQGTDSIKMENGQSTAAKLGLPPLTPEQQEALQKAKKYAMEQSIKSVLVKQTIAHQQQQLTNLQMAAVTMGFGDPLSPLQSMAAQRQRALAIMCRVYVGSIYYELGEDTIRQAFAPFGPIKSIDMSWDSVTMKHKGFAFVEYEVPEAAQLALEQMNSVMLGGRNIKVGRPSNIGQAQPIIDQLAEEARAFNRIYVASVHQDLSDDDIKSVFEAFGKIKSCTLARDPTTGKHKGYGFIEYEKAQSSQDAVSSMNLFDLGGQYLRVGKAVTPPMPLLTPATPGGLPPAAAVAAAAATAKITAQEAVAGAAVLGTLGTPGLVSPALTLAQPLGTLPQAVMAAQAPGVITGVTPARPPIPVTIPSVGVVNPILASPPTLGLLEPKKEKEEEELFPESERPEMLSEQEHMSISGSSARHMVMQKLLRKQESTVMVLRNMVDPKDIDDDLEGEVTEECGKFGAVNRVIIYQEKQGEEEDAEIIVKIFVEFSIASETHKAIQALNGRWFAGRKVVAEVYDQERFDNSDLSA
UniProt Q8WUY3: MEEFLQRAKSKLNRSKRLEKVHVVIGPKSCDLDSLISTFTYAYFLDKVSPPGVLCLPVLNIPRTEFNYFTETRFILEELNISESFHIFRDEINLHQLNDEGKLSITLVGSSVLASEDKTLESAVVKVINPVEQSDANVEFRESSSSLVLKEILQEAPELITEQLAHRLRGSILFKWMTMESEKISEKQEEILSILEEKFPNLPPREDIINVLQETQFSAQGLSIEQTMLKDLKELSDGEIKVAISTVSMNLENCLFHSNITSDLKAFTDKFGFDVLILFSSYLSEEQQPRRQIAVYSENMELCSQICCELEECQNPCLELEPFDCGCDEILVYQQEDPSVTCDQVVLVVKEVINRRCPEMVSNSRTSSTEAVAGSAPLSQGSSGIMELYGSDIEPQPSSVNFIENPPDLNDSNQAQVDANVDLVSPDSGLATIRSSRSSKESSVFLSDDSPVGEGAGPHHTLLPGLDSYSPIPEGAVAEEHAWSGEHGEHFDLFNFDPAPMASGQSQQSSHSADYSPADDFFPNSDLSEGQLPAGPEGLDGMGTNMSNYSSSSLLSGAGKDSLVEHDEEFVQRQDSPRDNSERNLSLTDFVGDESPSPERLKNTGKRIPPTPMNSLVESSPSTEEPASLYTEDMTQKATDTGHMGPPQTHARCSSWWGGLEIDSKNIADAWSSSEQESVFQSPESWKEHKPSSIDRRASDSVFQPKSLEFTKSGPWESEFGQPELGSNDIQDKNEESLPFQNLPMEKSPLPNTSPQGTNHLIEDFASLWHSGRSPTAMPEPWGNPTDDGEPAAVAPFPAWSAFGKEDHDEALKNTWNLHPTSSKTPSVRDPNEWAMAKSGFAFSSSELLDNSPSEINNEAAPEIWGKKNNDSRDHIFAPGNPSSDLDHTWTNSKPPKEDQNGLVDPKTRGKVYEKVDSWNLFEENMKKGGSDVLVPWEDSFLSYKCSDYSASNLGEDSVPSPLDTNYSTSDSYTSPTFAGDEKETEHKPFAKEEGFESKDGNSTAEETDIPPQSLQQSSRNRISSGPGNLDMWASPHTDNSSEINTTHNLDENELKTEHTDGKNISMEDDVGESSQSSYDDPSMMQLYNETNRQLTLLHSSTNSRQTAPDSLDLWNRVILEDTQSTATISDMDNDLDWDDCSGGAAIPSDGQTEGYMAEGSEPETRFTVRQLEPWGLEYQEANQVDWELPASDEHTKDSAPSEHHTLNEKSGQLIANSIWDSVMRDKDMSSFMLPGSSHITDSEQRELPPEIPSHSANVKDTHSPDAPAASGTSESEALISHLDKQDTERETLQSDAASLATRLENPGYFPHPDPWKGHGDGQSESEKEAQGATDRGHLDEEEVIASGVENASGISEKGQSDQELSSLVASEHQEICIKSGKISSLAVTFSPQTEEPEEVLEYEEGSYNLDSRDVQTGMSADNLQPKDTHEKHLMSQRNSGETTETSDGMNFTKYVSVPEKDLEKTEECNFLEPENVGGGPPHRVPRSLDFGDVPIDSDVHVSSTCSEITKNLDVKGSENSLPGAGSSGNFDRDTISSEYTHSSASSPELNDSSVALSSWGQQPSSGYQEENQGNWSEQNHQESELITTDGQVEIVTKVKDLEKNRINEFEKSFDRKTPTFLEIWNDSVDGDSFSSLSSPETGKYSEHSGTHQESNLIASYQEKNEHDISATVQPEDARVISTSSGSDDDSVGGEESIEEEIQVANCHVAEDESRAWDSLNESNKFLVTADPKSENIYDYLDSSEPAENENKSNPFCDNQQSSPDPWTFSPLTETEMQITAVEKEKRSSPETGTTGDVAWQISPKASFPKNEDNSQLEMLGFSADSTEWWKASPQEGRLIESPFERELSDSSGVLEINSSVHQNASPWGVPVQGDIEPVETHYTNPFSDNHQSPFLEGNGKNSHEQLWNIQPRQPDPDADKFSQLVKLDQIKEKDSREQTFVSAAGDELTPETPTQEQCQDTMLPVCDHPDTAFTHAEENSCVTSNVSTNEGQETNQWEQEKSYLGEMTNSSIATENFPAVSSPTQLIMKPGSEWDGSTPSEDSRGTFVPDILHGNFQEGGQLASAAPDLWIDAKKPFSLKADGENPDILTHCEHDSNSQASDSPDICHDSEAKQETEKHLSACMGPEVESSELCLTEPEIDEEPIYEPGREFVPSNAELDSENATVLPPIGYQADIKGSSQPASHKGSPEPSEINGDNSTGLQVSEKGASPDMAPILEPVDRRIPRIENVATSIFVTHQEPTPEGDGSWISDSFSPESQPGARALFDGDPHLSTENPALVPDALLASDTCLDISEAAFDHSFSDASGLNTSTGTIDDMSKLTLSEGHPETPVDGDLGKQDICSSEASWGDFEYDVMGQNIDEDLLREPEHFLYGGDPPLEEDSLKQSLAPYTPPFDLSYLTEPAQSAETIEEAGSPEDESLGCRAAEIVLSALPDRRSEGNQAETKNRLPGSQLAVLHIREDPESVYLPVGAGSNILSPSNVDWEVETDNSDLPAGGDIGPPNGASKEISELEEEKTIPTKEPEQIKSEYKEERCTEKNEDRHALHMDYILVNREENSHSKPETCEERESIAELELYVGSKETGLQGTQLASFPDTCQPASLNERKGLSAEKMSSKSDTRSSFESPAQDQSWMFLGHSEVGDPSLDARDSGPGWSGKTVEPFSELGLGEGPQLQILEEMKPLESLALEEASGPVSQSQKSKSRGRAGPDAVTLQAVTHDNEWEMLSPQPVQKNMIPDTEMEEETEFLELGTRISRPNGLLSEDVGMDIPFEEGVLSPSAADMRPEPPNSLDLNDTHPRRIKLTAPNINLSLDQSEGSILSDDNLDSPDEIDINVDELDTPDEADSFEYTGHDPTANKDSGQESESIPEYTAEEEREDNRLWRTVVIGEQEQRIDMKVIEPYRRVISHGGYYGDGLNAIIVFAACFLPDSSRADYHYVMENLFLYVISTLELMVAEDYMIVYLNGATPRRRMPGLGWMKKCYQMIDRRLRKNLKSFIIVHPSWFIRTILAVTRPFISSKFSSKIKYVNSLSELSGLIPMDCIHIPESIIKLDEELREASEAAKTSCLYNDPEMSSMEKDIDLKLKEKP
UniProt Q06323: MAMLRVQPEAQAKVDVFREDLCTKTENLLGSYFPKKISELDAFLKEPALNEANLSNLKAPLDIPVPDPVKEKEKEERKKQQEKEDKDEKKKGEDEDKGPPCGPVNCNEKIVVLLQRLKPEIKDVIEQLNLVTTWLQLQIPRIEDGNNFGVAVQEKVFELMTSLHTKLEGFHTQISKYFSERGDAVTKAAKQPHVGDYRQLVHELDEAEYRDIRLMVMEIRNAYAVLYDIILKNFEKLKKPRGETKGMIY
UniProt Q15008: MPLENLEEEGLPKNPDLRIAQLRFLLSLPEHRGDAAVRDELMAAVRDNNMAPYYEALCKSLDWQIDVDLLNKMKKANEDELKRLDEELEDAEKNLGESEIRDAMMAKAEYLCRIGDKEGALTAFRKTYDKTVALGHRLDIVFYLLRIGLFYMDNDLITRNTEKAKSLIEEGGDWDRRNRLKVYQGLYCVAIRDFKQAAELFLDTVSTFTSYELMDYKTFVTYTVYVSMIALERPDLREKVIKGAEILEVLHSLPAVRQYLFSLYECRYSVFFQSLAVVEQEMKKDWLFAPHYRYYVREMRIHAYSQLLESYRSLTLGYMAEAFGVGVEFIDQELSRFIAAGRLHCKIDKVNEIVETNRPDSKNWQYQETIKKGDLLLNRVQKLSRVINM
UniProt P43378: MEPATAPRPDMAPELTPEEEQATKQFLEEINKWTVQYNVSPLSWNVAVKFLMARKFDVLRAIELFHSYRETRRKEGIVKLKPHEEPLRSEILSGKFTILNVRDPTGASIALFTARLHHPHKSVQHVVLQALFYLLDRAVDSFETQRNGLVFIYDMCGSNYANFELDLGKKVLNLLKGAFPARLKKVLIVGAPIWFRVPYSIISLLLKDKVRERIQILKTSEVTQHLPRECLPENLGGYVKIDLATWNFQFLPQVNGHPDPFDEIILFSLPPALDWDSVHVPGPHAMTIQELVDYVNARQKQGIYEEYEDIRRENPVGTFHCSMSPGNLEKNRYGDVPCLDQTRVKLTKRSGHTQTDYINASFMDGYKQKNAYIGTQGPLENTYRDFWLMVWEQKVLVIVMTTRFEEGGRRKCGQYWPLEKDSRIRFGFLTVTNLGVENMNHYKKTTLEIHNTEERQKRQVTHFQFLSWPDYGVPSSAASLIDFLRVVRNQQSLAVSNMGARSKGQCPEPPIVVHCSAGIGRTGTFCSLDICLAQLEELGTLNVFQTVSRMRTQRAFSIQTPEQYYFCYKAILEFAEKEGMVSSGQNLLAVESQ
UniProt P20618: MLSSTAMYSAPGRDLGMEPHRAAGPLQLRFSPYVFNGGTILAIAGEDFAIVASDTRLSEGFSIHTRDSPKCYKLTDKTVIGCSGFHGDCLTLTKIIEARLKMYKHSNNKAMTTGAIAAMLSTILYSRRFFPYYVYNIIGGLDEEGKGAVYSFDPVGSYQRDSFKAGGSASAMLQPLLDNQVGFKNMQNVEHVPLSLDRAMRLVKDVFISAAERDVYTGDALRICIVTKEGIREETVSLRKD
UniProt Q9H939: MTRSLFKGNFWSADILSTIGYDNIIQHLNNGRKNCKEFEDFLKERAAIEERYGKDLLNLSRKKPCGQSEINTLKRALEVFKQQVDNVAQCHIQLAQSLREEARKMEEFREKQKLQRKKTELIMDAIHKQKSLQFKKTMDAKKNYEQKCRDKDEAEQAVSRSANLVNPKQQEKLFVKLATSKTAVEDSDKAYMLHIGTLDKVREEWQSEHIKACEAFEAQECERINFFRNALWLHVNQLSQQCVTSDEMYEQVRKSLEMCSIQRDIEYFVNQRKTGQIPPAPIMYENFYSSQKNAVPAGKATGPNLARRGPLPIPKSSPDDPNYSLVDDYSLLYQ
UniProt P18031: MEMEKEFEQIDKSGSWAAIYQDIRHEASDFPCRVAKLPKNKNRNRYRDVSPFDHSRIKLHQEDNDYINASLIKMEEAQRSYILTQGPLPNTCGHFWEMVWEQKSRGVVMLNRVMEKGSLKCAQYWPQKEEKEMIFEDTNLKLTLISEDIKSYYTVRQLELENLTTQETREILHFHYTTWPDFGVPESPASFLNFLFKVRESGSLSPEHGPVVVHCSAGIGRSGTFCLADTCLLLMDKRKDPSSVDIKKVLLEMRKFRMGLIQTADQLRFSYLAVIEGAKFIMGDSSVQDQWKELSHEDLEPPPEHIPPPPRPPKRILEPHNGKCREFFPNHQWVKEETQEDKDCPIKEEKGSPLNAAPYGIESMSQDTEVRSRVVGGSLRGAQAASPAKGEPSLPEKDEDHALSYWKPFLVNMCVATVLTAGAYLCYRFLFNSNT

This is one part of the list.

Compound in the experiment: O=C1NC(=O)C(c2cnc3ccccn23)=C1c1cn2c3c(cc(F)cc13)CN(C(=O)N1CCCCC1)CC2
The experiment can be described thus: log2 fold change, soluble protein after heating vs DMSO (PISA); higher = thermal stabilisation; K562 lysate, 10 uM; active = over 0.2 and 3.5 SD of the protein, either way, in both replicates (recomputed). The procedure, abridged: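 Following dounce homogenisation of K562 pellets in PBS pH 7.4 with 1 mM MgCl2, crude extract at 1 mg/mL protein was incubated for 30 min with 10 μM compound. Aliquots were then heated for 3 min over 48°C-58°C and pooled, NP-40 was added to 0.5% at 4°C, and soluble protein was recovered as the supernatant at 21,000xg for 90 min. Channel-sum-equalised TMTpro 16plex LC-MS/MS quantified this protein. Each value, from duplicates, is a log-two fold change in thermal stability relative to solvent controls.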
PSMB9 (UniProt P28065): the log2 fold change is inactive: 0.081. The value for PTGFRN (UniProt Q9P2B2) was inactive: -0.029.

Turning to PTRHD1 (UniProt Q6GMV3), the log2 fold change was inactive: 0.091. Consider PTMA (UniProt P06454), for which the log2 fold change was inactive: 0.023.

Consider PSAT1 (UniProt Q9Y617), for which the log2 fold change was inactive: -0.016.

For PTPA isoform 2 (UniProt Q15257), the log2 fold change is inactive: -0.027.

Take PSMA3 (UniProt H0YJ03): the log2 fold change is inactive: 0.005. With PUF60 isoform 2 (UniProt Q9UHX1), the log2 fold change was inactive: 0.026. Regarding PSMD4 (UniProt Q5VWC4), the log2 fold change is inactive: -0.005.

Consider PRUNE2 isoform 3 (UniProt Q8WUY3), for which the log2 fold change was inactive: 0.069. On to PUM1 isoform 3 (UniProt Q14671), for which the log2 fold change was inactive: -0.004. For PUS1 (UniProt Q9Y606), the log2 fold change is inactive: -0.013.

PTPDC1 isoform 2 (UniProt A2A3K4): the log2 fold change was inactive: 0.001. The value for PUS7L (UniProt Q9H0K6) was inactive: -0.017; that for PSMF1 (UniProt Q92530) was inactive: -0.052.

As to PUS3 (UniProt Q9BZE2), the log2 fold change was inactive: 0.017.

For the target PSME1 (UniProt Q06323), the log2 fold change was inactive: -0.017. As to PSMD6 isoform 4 (UniProt Q15008), the log2 fold change is inactive: -0.02. On to PTPN9 (UniProt P43378), for which the log2 fold change was inactive: -0.08.

On to PSMB1 (UniProt P20618), for which the log2 fold change is inactive: 0.02. On to PSTPIP2 (UniProt Q9H939), for which the log2 fold change is inactive: 0.017.

For the target PTPN1 (UniProt P18031), the log2 fold change was inactive: 0.012.
